No constants are given. Whether binding was seen depends on the method and setting. Binding seen in cells or lysates may run through a third protein. Some binding calls cover weakened binding; strength is not graded here.
Tests used:
[1] = molecular target: Calcineurin (rat (endogenous in PC12)) (UniProt P63329); test: co-IP; polyclonal anti-calcineurin antibodies and protein A/G agarose on RIPA lysates of differentiated PC12 lines (control, _2, _3), 4 °C; blots with anti-PMCA1, anti-PMCA2, anti-PMCA3, anti-PMCA4
[2] = molecular target: Calcineurin (rat (endogenous in PC12)) (UniProt P63329); test: co-IP; as a2, in the PMCA2-reduced (_2) and PMCA3-reduced (_3) differentiated PC12 lines only; blot with anti-PMCA4; immunosignal lowered by ~51 and ~62 % against mock-transfected cells

Protein sequences, listed by entry. Tags and fused reporters are not part of them. Lines headed by an entry give the natural chain unless they say otherwise; changes in a name come on top. Chains listed by the source or under a name are the forms on record and can include a tag or linker.
UniProt P11505: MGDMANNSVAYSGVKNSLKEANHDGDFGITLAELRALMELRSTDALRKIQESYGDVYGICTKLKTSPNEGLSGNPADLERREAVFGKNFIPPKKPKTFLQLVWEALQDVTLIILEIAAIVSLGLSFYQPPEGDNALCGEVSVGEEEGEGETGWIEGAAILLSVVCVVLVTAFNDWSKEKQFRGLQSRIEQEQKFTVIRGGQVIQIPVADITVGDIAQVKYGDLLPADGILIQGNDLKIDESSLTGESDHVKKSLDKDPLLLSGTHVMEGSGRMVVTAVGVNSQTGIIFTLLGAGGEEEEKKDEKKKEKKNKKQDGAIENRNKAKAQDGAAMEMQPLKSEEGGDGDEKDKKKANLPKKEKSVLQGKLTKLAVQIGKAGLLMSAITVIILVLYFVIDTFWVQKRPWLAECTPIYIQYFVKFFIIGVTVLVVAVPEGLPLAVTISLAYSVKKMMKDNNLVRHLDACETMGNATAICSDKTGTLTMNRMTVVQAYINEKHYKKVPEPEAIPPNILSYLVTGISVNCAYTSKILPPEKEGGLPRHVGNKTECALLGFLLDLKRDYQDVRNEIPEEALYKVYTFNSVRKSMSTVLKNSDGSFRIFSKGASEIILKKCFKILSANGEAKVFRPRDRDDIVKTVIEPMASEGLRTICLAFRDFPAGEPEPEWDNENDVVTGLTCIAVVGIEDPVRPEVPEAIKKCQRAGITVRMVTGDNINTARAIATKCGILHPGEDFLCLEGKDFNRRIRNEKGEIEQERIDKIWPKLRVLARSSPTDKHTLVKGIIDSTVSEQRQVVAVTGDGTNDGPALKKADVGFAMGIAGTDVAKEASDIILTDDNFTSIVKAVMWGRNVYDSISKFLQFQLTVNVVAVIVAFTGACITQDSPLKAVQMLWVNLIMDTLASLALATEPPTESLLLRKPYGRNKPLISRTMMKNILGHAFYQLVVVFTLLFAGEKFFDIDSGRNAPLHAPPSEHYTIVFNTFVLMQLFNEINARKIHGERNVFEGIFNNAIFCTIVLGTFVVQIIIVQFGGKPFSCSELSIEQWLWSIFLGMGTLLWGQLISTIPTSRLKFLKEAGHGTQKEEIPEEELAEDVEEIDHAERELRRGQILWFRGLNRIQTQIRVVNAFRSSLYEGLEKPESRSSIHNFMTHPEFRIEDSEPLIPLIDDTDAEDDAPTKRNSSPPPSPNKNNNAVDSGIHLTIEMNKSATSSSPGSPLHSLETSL
Plasma membrane calcium pump isoform 2 (P11506-14, form named): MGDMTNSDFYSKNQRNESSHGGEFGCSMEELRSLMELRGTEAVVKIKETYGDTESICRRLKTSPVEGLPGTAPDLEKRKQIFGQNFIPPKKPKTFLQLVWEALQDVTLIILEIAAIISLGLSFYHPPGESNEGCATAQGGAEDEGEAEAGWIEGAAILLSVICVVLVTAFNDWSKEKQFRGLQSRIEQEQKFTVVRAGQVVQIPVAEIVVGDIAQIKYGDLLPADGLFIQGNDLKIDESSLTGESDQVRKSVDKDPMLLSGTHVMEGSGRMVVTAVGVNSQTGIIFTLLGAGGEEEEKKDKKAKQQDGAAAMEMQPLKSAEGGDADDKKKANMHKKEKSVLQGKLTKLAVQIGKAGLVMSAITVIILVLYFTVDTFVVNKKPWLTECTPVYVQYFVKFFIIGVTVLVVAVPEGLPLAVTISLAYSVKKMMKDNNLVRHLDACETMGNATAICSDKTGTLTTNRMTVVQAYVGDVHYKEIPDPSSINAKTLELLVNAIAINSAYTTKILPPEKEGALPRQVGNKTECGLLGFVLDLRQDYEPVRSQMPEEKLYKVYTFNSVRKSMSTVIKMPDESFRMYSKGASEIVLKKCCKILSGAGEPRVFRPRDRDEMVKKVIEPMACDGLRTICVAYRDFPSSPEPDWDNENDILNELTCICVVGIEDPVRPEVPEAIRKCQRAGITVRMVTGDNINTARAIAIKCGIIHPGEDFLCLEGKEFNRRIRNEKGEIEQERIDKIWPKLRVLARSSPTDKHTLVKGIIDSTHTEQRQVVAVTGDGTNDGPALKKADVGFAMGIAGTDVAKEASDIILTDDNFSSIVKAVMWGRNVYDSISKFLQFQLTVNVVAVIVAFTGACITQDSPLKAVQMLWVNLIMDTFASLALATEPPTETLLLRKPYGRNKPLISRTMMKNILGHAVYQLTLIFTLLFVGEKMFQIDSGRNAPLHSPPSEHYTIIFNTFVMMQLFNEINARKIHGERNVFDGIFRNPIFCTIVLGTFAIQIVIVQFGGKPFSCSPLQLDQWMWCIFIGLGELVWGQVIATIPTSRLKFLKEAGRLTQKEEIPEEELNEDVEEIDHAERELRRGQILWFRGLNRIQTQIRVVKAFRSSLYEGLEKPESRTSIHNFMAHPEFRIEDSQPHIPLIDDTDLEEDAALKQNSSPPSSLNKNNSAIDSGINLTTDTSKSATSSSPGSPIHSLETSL
Plasma membrane calcium pump isoform 3 (Q64568-3, form named): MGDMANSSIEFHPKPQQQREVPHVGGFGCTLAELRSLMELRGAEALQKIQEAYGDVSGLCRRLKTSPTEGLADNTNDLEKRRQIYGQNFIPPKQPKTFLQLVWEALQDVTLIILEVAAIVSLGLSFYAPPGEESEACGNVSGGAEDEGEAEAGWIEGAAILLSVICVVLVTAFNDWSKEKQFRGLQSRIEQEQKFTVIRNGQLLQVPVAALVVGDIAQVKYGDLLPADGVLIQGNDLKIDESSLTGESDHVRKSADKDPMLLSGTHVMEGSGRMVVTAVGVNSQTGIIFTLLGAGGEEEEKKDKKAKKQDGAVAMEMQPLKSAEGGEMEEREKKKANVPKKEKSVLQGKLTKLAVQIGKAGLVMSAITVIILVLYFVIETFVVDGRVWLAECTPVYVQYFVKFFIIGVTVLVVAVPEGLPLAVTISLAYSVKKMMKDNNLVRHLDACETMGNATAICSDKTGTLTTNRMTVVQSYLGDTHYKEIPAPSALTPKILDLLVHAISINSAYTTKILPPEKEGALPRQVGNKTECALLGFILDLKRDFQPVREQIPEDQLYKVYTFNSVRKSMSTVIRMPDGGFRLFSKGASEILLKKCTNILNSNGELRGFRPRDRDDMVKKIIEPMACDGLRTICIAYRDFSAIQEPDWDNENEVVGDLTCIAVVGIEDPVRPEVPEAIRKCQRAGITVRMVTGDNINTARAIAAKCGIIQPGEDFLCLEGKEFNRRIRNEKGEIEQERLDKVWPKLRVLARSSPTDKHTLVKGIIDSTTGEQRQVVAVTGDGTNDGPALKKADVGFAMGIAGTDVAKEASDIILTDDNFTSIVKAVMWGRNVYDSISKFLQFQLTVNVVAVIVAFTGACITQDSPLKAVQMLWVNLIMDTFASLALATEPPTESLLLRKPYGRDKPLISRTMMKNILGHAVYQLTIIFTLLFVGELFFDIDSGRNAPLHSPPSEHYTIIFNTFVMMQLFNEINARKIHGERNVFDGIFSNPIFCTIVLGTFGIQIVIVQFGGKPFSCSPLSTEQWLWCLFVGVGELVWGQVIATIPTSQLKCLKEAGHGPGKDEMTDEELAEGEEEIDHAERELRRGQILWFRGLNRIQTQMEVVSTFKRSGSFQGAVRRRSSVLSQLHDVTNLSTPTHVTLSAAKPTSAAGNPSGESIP
UniProt Q64542: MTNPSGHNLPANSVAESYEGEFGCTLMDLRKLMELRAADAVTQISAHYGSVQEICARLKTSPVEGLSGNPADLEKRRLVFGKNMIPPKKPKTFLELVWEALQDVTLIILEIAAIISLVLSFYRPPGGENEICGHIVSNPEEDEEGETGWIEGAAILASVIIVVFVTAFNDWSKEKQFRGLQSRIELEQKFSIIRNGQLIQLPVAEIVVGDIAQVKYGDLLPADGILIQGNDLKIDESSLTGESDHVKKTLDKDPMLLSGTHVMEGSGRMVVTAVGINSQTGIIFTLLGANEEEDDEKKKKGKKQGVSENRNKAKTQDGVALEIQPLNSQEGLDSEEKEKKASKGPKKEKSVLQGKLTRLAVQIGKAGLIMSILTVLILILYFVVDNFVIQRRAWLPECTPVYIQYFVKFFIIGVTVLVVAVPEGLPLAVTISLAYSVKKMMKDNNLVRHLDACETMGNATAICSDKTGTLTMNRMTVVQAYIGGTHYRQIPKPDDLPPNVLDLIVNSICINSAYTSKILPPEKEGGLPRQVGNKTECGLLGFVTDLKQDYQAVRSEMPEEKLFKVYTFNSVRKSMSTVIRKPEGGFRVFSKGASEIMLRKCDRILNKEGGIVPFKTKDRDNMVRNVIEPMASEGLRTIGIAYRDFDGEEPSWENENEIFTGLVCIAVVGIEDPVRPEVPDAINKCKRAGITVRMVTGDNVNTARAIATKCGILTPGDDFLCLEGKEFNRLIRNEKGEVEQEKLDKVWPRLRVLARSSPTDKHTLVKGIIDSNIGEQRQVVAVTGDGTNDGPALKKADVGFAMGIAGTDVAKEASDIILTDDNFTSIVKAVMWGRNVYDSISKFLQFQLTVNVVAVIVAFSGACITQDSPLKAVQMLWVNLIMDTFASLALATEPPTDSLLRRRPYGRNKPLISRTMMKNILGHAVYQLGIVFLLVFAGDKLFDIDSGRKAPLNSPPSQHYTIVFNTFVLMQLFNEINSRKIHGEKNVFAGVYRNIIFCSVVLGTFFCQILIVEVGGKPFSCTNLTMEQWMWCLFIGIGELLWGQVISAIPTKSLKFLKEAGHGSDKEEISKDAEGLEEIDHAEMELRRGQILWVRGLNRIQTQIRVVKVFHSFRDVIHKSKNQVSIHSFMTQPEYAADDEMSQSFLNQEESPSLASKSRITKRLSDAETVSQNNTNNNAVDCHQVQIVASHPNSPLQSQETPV

| Substance | binding [1] | binding [2] |
| --- | --- | --- |
| Plasma membrane calcium pump isoform 1 (from UniProt P11505 1-1220) | no binding |  |
| Plasma membrane calcium pump isoform 2 (from UniProt P11506-14 1-1198) | binds |  |
| Plasma membrane calcium pump isoform 3 (from UniProt Q64568-3 1-1159) | no binding |  |
| Plasma membrane calcium pump isoform 4 (from UniProt Q64542 1-1203) | binds | binds weakly |
